From article PMC13202173, “Polyphosphate as a novel regulator of super-enhancer complexes: disruption of phase separation and gene expression”
No constants are given. Whether binding was seen depends on the method and setting. Binding seen in cells or lysates may run through a third protein. Some binding calls cover weakened binding; strength is not graded here.

Chains of the proteins cited; added tags and fusions are not shown.
UniProt P25490: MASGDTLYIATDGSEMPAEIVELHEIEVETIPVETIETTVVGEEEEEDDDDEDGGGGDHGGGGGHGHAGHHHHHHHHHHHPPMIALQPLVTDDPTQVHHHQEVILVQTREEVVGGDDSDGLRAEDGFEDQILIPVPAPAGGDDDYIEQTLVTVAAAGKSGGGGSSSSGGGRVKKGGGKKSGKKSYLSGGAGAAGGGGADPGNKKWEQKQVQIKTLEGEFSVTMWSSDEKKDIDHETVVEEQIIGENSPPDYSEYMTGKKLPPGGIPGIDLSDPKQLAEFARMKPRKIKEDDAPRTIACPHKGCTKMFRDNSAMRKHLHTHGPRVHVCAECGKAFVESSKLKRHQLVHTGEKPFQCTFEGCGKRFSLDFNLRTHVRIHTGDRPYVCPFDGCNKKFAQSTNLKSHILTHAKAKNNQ

Key:
[1] = target: Yin Yang 1 (YY1), FLAG-tagged and HA-tagged copies (UniProt P25490); assay: co-IP; equal amounts (100 ug each) of nuclear extracts from HeLa cells singly transfected with FLAG-YY1 or HA-YY1 were mixed; anti-HA on protein G beads, overnight at 4 °C; ddH2O instead of polyP; blot with anti-FLAG and anti-HA
[2] = target: Yin Yang 1 (YY1), FLAG-tagged and HA-tagged copies (UniProt P25490); assay: co-IP; as a1 but with 5 mM polyP700 added to the bead and extract mixture
[3] = target: Yin Yang 1 (YY1), FLAG-tagged and HA-tagged copies (UniProt P25490); assay: condition: only with polyP100 (5 mM polyP by the methods); co-IP; as a1 but with polyP100 added to the immunoprecipitation (5 mM polyP by the methods)
[4] = target: Yin Yang 1 (YY1), FLAG-tagged and HA-tagged copies (UniProt P25490); assay: condition: only in nuclear extracts from cells co-expressing PPK1 (polyP accumulation); co-IP; 100 ug nuclear extract from HeLa cells triple-transfected with FLAG-YY1, HA-YY1 and mCherry-PPK1 (polyP made in the cells); anti-HA on protein G beads, overnight at 4 °C

Yin Yang 1 (YY1), FLAG-tagged and HA-tagged copies (from UniProt P25490 1-414)
binding [1]: binds
binding [2]: no binding (condition: with 5 mM polyP700)
binding [3]: no binding
binding [4]: no binding
